# Some of the results follow.
# Columns and labels:
# Experiment in all cases: glycan array binding signal (z-score within array); higher = stronger binding
# Details in all cases: glycan notation: IUPAC condensed, linker removed
# [1] = biological target: Gal(b1-3)[Neu5Ac(a2-6)]GlcNAc(b1-4)Gal(b1-4)Glc
# Summary of the method: (§1)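 The binding signal is a Z-score computed within each array and averaged over linkers. Arrays of the same protein sequence at different concentrations or buffers were also averaged together. Data originate from 3228 arrays in the Consortium for Functional Glycomics database, kept only where the protein sequence was available.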
# [2] = biological target: Gal(b1-3)[Neu5Ac(a2-6)]GlcNAc(b1-6)Gal(b1-4)Glc
# Summary of the method: as §1
# [3] = biological target: Gal(b1-3)[Neu5Ac(b2-6)]GalNAc
# Summary of the method: as §1
# [4] = biological target: Gal(b1-4)Gal
# Summary of the method: as §1
# [5] = biological target: Gal(b1-4)GalNAc(a1-3)[Fuc(a1-2)]Gal(b1-4)GlcNAc
# Summary of the method: as §1
# [6] = biological target: Gal(b1-4)GalNAc(b1-3)[Fuc(a1-2)]Gal(b1-4)GlcNAc
# Summary of the method: as §1
# [7] = biological target: Gal(b1-4)Glc
# Summary of the method: as §1
# [8] = biological target: Gal(b1-4)Glc6S
# Summary of the method: as §1
# [9] = biological target: Gal(b1-4)GlcNAc
# Summary of the method: as §1
# [10] = biological target: Gal(b1-4)GlcNAc(a1-6)Gal(b1-4)GlcNAc
# Summary of the method: as §1
# [11] = biological target: Gal(b1-4)GlcNAc(b1-2)Man
# Summary of the method: as §1
# [12] = biological target: Gal(b1-4)GlcNAc(b1-2)Man(a1-3)Man(b1-4)GlcNAc(b1-4)GlcNAc
# Summary of the method: as §1
# [13] = biological target: Gal(b1-4)GlcNAc(b1-2)Man(a1-3)[Gal(b1-4)GlcNAc(b1-2)Man(a1-6)]Man(b1-4)GlcNAc(b1-4)GlcNAc
# Summary of the method: as §1
# [14] = biological target: Gal(b1-4)GlcNAc(b1-2)Man(a1-3)[Gal(b1-4)GlcNAc(b1-2)Man(a1-6)]Man(b1-4)GlcNAc(b1-4)[Fuc(a1-6)]GlcNAc
# Summary of the method: as §1
# [15] = biological target: Gal(b1-4)GlcNAc(b1-2)Man(a1-3)[Gal(b1-4)GlcNAc(b1-2)Man(a1-6)][Gal(b1-4)GlcNAc(b1-4)]Man(b1-4)GlcNAc(b1-4)[Fuc(a1-6)]GlcNAc
# Summary of the method: as §1
# [16] = biological target: Gal(b1-4)GlcNAc(b1-2)Man(a1-3)[Gal(b1-4)GlcNAc(b1-2)Man(a1-6)][GlcNAc(b1-4)]Man(b1-4)GlcNAc(b1-4)[Fuc(a1-6)]GlcNAc
# Summary of the method: as §1
# [17] = biological target: Gal(b1-4)GlcNAc(b1-2)Man(a1-3)[GlcNAc(b1-2)Man(a1-6)]Man(b1-4)GlcNAc(b1-4)GlcNAc
# Summary of the method: as §1
# [18] = biological target: Gal(b1-4)GlcNAc(b1-2)Man(a1-3)[GlcNAc(b1-4)][Gal(b1-4)GlcNAc(b1-2)Man(a1-6)]Man(b1-4)GlcNAc(b1-4)GlcNAc
# Summary of the method: as §1
# [19] = biological target: Gal(b1-4)GlcNAc(b1-2)Man(a1-3)[Man(a1-6)]Man(b1-4)GlcNAc(b1-4)GlcNAc
# Summary of the method: as §1
# [20] = biological target: Gal(b1-4)GlcNAc(b1-2)Man(a1-6)Man(b1-4)GlcNAc(b1-4)GlcNAc
# Summary of the method: as §1
# [21] = biological target: Gal(b1-4)GlcNAc(b1-2)Man(a1-6)[GlcNAc(b1-2)Man(a1-3)]Man(b1-4)GlcNAc(b1-4)GlcNAc
# Summary of the method: as §1
# [22] = biological target: Gal(b1-4)GlcNAc(b1-2)Man(a1-6)[Man(a1-3)]Man(b1-4)GlcNAc(b1-4)GlcNAc
# Summary of the method: as §1
# [23] = biological target: Gal(b1-4)GlcNAc(b1-2)[Gal(b1-4)GlcNAc(b1-4)]Man(a1-3)[Gal(b1-4)GlcNAc(b1-2)Man(a1-6)]Man(b1-4)GlcNAc(b1-4)GlcNAc
# Summary of the method: as §1
# [24] = biological target: Gal(b1-4)GlcNAc(b1-2)[Gal(b1-4)GlcNAc(b1-4)]Man(a1-3)[Gal(b1-4)GlcNAc(b1-2)[Gal(b1-4)GlcNAc(b1-6)]Man(a1-6)]Man(b1-4)GlcNAc(b1-4)GlcNAc
# Summary of the method: as §1
# [25] = biological target: Gal(b1-4)GlcNAc(b1-2)[Gal(b1-4)GlcNAc(b1-4)]Man(a1-3)[GlcNAc(b1-4)][Gal(b1-4)GlcNAc(b1-2)Man(a1-6)]Man(b1-4)GlcNAc(b1-4)GlcNAc
# Summary of the method: as §1
# [26] = biological target: Gal(b1-4)GlcNAc(b1-2)[Gal(b1-4)GlcNAc(b1-4)]Man(a1-3)[GlcNAc(b1-4)][Gal(b1-4)GlcNAc(b1-2)[Gal(b1-4)GlcNAc(b1-6)]Man(a1-6)]Man(b1-4)GlcNAc(b1-4)GlcNAc
# Summary of the method: as §1
# [27] = biological target: Gal(b1-4)GlcNAc(b1-2)[Gal(b1-4)GlcNAc(b1-6)]Man(a1-6)[Gal(b1-4)GlcNAc(b1-2)Man(a1-3)]Man(b1-4)GlcNAc(b1-4)GlcNAc
# Summary of the method: as §1
# [28] = biological target: Gal(b1-4)GlcNAc(b1-2)[Gal(b1-4)GlcNAc(b1-6)]Man(a1-6)[Gal(b1-4)GlcNAc(b1-2)Man(a1-3)]Man(b1-4)GlcNAc(b1-4)[Fuc(a1-6)]GlcNAc
# Summary of the method: as §1
# [29] = biological target: Gal(b1-4)GlcNAc(b1-2)[Gal(b1-4)GlcNAc(b1-6)]Man(a1-6)[GlcNAc(b1-4)][Gal(b1-4)GlcNAc(b1-2)Man(a1-3)]Man(b1-4)GlcNAc(b1-4)GlcNAc
# Summary of the method: as §1
# [30] = biological target: Gal(b1-4)GlcNAc(b1-2)[Gal(b1-4)GlcNAc(b1-6)]Man(a1-6)[GlcNAc(b1-4)][Gal(b1-4)GlcNAc(b1-2)[Gal(b1-4)GlcNAc(b1-4)]Man(a1-3)]Man(b1-4)GlcNAc(b1-4)[Fuc(a1-6)]GlcNAc
# Summary of the method: as §1
binder,measurement,setting,value
"Endo180d1-D4 (Homo sapiens), Q9UBG0 (protein) MGPGRPAPAPWPRHLLRCVLLLGCLHLGRPGAPGDAALPEPNVFLIFSHGLQGCLEAQGGQVRVTPACNTSLPAQRWKWVSRNRLFNLGTMQCLGTGWPGTNTTASLGMYECDREALNLRWHCRTLGDQLSLLLGARTSNISKPGTLERGDQTRSGQWRIYGSEEDLCALPYHEVYTIQGNSHGKPCTIPFKYDNQWFHGCTSTGREDGHLWCATTQDYGKDERWGFCPIKSNDCETFWDKDQLTDSCYQFNFQSTLSWREAWASCEQQGADLLSITEIHEQTYINGLLTGYSSTLWIGLNDLDTSGGWQWSDNSPLKYLNWESDQPDNPSEENCGVIRTESSGGWQNRDCSIALPYVCKKKPNATAEPTPPDRWANVKVECEPSWQPFQGHCYRLQAEKRSWQESKKACLRGGGDLVSIHSMAELEFITKQIKQEVEELWIGLNDLKLQMNFEWSDGSLVSFTHWHPFEPNNFRDSLEDCVTIWGPEGRWNDSPCNQSLPSICKKAGQLSQGAAEEDHGCRKGWTWHSPSCYWLGEDQVTYSEARRLCTDHGSQLVTITNRFEQAFVSSLIYNWEGEYFWTALQDLNSTGSFFWLSGDEVMYTHWNRDQPGYSRGGCVALATGSAMGLWEVKNCTSFRARYICRQSLGTPVTPELPGPDPTPSLTGSCPQGWASDTKLRYCYKVFSSERLQDKKSWVQAQGACQELGAQLLSLASYEEEHFVANMLNKIFGESEPEIHEQHWFWIGLNRRDPRGGQSWRWSDGVGFSYHNFDRSRHDDDDIRGCAVLDLASLQWVAMQCDTQLDWICKIPRGTDVREPDDSPQGRREWLRFQEAEYKFFEHHSTWAQAQRICTWFQAELTSVHSQAELDFLSHNLQKFSRAQEQHWWIGLHTSESDGRFRWTDGSIINFISWAPGKPRPVGKDKKCVYMTASREDWGDQRCLTALPYICKRSNVTKETQPPDLPTTALGGCPSDWIQFLNKCFQVQGQEPQSRVKWSEAQFSCEQQEAQLVTITNPLEQAFITASLPNVTFDLWIGLHASQRDFQWVEQEPLMYANWAPGEPSGPSPAPSGNKPTSCAVVLHSPSAHFTGRWDDRSCTEETHGFICQKGTDPSLSPSPAALPPAPGTELSYLNGTFRLLQKPLRWHDALLLCESHNASLAYVPDPYTQAFLTQAARGLRTPLWIGLAGEEGSRRYSWVSEEPLNYVGWQDGEPQQPGGCTYVDVDGAWRTTSCDTKLQGAVCGVSSGPPPPRRISYHGSCPQGLADSAWIPFREHCYSFHMELLLGHKEARQRCQRAGGAVLSILDEMENVFVWEHLQSYEGQSRGAWLGMNFNPKGGTLVWQDNTAVNYSNWGPPGLGPSMLSHNSCYWIQSNSGLWRPGACTNITMGVVCKLPRAEQSSFSPSALPENPAALVVVLMAVLLLLALLTAALILYRRRQSIERGAFEGARYSRSSSSPTEATEKNILVSDMEMNEQQE",glycan array binding signal (z-score),[1],-0.7
same,glycan array binding signal (z-score),[2],-0.235
same,glycan array binding signal (z-score),[3],0.381
same,glycan array binding signal (z-score),[4],1.45
same,glycan array binding signal (z-score),[5],-0.236
same,glycan array binding signal (z-score),[6],0.107
same,glycan array binding signal (z-score),[7],0.014
same,glycan array binding signal (z-score),[8],0.158
same,glycan array binding signal (z-score),[9],-0.303
same,glycan array binding signal (z-score),[10],-0.98
same,glycan array binding signal (z-score),[11],-0.181
same,glycan array binding signal (z-score),[12],0.985
same,glycan array binding signal (z-score),[13],-0.557
same,glycan array binding signal (z-score),[14],0.329
same,glycan array binding signal (z-score),[15],0.164
same,glycan array binding signal (z-score),[16],-1.03
same,glycan array binding signal (z-score),[17],0.022
same,glycan array binding signal (z-score),[18],-0.243
same,glycan array binding signal (z-score),[19],-0.039
same,glycan array binding signal (z-score),[20],0.463
same,glycan array binding signal (z-score),[21],-0.638
same,glycan array binding signal (z-score),[22],1.42
same,glycan array binding signal (z-score),[23],0.799
same,glycan array binding signal (z-score),[24],-0.428
same,glycan array binding signal (z-score),[25],0.374
same,glycan array binding signal (z-score),[26],-2.45
same,glycan array binding signal (z-score),[27],-1.4
same,glycan array binding signal (z-score),[28],-0.506
same,glycan array binding signal (z-score),[29],-0.127
same,glycan array binding signal (z-score),[30],1.09
